From publication PMC3795685

Target: T1, TAP-tagged wild-type Infected Cell Polypeptide 4 (ICP4) of HSV-1 strain KOS (herpes simplex virus type 1 (HSV-1), strain KOS) (UniProt P08392)
T1 sequence: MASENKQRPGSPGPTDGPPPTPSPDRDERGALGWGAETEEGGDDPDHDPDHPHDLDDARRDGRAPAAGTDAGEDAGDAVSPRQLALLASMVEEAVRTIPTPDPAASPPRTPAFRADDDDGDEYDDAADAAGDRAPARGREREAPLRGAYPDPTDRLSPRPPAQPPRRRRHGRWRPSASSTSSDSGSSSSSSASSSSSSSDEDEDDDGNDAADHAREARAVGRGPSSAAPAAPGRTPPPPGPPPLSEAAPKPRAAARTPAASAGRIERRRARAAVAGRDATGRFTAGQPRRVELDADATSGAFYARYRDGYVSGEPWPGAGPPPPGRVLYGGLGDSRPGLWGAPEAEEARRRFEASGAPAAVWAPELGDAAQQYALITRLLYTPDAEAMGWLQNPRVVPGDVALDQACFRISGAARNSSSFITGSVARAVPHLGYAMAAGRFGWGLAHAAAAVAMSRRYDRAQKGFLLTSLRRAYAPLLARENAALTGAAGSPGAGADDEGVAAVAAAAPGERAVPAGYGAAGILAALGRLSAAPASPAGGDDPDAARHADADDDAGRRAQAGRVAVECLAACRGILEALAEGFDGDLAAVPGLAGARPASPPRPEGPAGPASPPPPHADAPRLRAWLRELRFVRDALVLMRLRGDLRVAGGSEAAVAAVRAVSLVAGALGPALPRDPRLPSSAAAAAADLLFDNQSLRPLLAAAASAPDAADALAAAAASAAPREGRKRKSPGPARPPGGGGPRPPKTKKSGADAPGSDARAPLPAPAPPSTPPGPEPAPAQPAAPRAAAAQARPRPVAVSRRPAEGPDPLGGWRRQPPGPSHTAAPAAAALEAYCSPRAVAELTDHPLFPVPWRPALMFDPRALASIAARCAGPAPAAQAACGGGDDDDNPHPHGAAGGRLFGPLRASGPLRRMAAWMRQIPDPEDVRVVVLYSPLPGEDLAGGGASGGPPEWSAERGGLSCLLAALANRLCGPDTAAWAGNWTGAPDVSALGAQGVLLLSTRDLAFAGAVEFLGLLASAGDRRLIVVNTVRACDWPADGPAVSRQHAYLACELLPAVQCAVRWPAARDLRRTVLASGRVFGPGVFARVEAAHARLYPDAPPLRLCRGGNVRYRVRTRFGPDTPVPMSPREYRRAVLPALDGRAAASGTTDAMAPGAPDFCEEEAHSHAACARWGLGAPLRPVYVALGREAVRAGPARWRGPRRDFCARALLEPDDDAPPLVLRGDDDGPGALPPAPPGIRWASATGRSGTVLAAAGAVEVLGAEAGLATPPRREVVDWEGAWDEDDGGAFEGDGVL
Test: pull-down; streptavidin affinity purification of TAP-tagged ICP4 from nuclear extracts of infected Vero cells (3 or 6 hpi), independent samples; biotin eluates analysed by Western blot, in part quantified with a LI-COR Odyssey imager and normalised to ICP4; untagged virus as control

Row | Substance | binding
1 | MED1 | binds
2 | CPSF2 | binds
3 | cyclin dependent kinase (CDK) 8 | binds
4 | MED6 | binds
5 | RUVBL1 | binds
6 | RUVBL2 | binds
7 | CPSF7 | binds
8 | Med26 | no binding
9 | CHD3 | binds
10 | XPD | binds
11 | MED23 | binds
12 | MED13 | binds
13 | MED12 | binds
14 | Brahma | binds

These are yes or no findings as the source states them, for the method shown. Binding seen in cells or lysates may run through a third protein. Binding can be weak; no strength is given. Where a sequence is shown, tags or fusion partners need not be part of it.
